Measurements reported in paper PMC6825199.

By UniProt entry, the sequences of proteins in these tests, tags left out.
UniProt Q17551: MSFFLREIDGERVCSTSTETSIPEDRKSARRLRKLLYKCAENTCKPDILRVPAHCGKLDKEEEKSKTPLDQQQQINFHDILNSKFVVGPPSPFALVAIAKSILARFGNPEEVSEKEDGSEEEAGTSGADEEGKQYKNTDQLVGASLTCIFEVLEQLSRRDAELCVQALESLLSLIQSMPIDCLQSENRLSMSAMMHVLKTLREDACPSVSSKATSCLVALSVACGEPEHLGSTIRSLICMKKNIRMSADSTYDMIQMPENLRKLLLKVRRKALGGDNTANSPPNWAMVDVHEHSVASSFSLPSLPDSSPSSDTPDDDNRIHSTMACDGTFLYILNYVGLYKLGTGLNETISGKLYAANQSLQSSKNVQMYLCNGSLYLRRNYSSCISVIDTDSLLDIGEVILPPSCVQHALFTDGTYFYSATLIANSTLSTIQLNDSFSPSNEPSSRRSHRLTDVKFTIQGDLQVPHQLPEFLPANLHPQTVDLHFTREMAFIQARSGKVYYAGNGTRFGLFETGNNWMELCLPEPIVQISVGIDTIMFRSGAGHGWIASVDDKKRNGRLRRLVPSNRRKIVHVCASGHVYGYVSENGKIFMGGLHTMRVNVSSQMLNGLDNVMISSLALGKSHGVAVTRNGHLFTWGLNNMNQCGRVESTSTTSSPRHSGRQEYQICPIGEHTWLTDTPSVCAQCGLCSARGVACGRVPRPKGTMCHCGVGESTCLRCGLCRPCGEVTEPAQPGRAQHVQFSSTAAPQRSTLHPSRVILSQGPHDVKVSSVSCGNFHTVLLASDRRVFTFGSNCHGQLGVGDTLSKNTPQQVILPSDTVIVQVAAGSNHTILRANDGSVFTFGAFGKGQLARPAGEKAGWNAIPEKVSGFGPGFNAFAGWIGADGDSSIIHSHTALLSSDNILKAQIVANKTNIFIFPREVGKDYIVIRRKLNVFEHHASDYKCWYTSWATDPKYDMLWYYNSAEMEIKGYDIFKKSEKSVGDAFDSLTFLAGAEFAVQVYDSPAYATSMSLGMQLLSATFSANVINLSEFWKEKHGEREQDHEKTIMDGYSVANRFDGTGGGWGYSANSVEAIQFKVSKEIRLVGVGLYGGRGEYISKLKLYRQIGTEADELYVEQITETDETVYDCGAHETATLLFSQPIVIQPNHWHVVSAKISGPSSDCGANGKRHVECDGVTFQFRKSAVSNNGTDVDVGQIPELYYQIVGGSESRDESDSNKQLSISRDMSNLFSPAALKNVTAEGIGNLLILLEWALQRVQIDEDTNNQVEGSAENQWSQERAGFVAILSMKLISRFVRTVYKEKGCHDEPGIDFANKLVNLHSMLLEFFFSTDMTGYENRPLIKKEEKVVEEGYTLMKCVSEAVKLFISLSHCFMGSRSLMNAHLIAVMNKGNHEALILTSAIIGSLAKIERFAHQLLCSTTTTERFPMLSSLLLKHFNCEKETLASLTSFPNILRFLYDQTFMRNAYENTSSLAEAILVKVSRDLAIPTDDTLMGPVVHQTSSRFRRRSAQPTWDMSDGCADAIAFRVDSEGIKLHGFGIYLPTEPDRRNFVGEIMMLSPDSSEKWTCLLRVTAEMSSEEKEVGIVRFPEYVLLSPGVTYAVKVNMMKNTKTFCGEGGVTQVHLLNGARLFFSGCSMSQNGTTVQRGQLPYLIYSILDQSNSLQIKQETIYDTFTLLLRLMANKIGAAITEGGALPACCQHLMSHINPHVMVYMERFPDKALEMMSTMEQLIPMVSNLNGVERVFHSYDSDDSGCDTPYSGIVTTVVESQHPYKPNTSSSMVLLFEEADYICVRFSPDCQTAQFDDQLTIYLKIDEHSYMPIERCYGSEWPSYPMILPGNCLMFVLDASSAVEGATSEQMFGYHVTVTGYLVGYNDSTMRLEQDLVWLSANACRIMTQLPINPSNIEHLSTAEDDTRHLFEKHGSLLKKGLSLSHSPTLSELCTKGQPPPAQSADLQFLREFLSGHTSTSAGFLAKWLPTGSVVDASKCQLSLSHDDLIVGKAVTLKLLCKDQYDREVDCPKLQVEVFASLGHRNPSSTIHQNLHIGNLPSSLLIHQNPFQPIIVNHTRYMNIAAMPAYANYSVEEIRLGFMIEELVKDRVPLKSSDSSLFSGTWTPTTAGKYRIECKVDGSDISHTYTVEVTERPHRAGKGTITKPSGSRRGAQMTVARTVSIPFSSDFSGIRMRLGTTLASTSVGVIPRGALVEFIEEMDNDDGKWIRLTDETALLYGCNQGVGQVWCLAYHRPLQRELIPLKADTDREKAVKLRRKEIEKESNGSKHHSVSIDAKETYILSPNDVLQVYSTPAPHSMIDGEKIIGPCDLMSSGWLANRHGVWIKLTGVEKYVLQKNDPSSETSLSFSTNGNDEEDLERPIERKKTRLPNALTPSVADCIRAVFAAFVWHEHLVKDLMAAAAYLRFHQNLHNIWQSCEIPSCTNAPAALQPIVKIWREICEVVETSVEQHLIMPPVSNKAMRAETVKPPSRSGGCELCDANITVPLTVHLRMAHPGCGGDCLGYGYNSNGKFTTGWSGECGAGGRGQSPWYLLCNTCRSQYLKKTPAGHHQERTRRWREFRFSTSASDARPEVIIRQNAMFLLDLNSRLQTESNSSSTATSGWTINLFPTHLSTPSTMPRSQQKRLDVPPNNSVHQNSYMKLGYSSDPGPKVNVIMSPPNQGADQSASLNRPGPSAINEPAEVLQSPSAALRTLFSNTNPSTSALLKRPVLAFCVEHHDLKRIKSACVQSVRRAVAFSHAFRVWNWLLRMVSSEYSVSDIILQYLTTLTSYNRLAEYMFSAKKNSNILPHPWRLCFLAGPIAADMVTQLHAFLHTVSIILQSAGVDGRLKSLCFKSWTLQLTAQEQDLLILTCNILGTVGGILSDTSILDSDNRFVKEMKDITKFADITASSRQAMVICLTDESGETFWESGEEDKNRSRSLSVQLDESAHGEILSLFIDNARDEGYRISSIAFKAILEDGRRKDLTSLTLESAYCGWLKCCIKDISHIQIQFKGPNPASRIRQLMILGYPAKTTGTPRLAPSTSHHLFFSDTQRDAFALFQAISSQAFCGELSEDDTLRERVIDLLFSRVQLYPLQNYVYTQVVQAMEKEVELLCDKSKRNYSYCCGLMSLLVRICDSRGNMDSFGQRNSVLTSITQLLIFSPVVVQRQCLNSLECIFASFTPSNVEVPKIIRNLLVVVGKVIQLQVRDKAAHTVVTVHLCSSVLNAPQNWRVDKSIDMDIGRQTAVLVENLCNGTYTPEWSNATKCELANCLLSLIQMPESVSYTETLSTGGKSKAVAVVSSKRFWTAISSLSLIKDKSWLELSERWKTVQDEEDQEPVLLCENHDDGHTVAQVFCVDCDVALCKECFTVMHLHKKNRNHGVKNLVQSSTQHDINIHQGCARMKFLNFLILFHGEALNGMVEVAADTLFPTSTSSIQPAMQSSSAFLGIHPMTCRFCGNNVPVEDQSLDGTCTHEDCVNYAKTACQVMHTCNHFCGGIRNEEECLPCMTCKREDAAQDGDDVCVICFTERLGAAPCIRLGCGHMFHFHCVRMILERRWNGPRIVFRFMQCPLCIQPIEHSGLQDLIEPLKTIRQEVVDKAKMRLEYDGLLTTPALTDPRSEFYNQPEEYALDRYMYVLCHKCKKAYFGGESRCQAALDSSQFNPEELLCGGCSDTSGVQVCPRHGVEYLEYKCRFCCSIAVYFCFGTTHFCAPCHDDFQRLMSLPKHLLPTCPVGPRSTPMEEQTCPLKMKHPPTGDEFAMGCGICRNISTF
UniProt G5ECU1: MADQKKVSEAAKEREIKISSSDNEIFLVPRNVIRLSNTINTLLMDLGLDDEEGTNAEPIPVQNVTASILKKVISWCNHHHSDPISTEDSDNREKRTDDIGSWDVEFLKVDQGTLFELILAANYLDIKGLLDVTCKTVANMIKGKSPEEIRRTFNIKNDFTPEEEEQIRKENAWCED

B1: RAE-1 (protein, UniProt Q93454 1-373)
chain: MFGSSGFGNKSMFGGSNISTSTTTPAANTTQNDDFLVDGAPEDTIQVIKFSPTPQDKPMLACGSWDGTIRVWMFNDANTFEGKAQQNIPAPILDIAWIEDSSKIFIACADKEARLWDLASNQVAVVGTHDGPVKTCHWINGNNYQCLMTGSFDKTLRFWDMKNLPNQTQMAQIQLPERVYAADVLYPMAVVALANKHIKVYNLENGPTEVKDIESQLKFQIRCISIFKDKSNQNPAGFALGSIEGRVAVQYVDVANPKDNFTFKCHRSAELVNGFQEIYAVNDICFHPQHGTLVTIGSDGRYSMWDKDARTKLKTSEPHPMPLTCCDVHSSGAFLVYALGYDWSRGHEGNTQPGSKIVIHKCIEDMKPRPTKK
B2: GLO-4 (protein, UniProt Q5DX34 1-1386)
chain: MFFKRSTNSRKTSANSSSDTSTSSESLLLPLLNNTKAGARSQKGSVHRQSGKKARRKMMENPYVCSLELDELSADDSIIDYSVFSDDSFLLILLLTSKGDVQAYLETSRDTKPRKNVVNIKTACSLNVSPVTVCIGSQAAFAIFGLADGNLLVTPIRLLIDVTWGGSSWATTTVIDLSLPTVDPCLATPTCTKCFVSNFPPCTMAVVANKAGNILLVDLHLRKCVSELKAPQSLHQIDILLDENSIELLVTGFTGAQWIIPIERSGKGFREVLTTCVPSDLTVLEPATMQFFAADSCGVVALDTTESIVEVYNTFHSLAHSSKRTFKVPPETWMVHAGDNMLFTVSNDNEIRSALHFGFMSSRLEYTLVRTSTNWRPLGIVAMPSRPHKLAGIFVVNERGLVRVEQSTALNLTKIASEFFFRLSPLQLNSKSVAQVANACRIDTAEFQSALIPNLLSTRKNRQLTNKELSQIYSIAKAINLSMSDLLKAFENESIGEQLLPEVLNTIQTNPAKHDNLMQRVVEMFVKRSLSAEGNMDKIREYDAELSNFLARHEHLHKGSVDCAKAGMWKCTQTLVRRDVHETKSIDTSTEVLLYIIKNRLQIWNEANSTDRLQIMSLVCHLDWSKLADADGARVCAILSAWQRDISLPSYHEMCLRIAITNSDRFPRPCQILSLVSSIHILSEKKISNHANLPNFLPLAGGNNCGATITEDDRLMIWGNFTNAQQRMEMPQMNAKSKRSDSVTNGAPTLPPPAPKPEQHLPRVLEYPGGRPRAIACGAEHILVLSSSGQLSAWGGNRFGQCGVGHSFRIANLHQVDGDWPAIEKIACGQFHSAFICSDGSLWTFGWGVWGQLGHGGRNNSNQLVPTRVNGLICKVTQIACGRAHTVVLTDTGRVLVCGSGSYGQMGVDDDIKKVFAFTPLPLGPLRVRDIATHYYHSICITEDNRVFEWGRNPQELKMRMFVMKKIRSAQLKNTEDPSSPSPSTNGSTPRVNLNLPAEIPREDLGLREVKHFLDGNIVSVACGLSHSALITSEGTLYTWGKGLDYQLGHGNKNERMEPHQVFEPNGAKWVNVSLGNNHTIASTDDGSVFAWGKNDFGQCGVLTKKNGNSADVTKKFFFQARDGRRFMPNVDESQFVQKPGLIPDVRVRNLNEDGNEGVDKEEIVDRLKASDVNVVQAVSKHLYSPIEGKCNGSIIEDEPRNGKIQKQNKYDGEDGPLCTTTALVHLIAGDVKRAIRMIEWLKTDSSTCEKSLMVLSSLVWEVMANHEDVQSREALSAAFRHVPMSDSMRKGKQIAQLWPAVWNDERVQSSLSIDEKIAMLDGFTSASKPVSCPTIPSSSLEVSSKIRVYAQCAHAEPAAVGSPPECSTCLDEWTEKVRHTLGTQL
B3: PPM-2 (enzyme, UniProt P49596 1-356)
chain: MGQTLSEPVTKKESASCANENYLVGSSCMQGWRVDMEDAHTHLLSLPDDPKCAFFAVYDGHGGSKVSQYSGINLHKKVVAQKEFSEGNMKEAIEKGFLELDQQMRVDEETKDDVSGTTAVVVLIKEGDVYCGNAGDSRAVSSVVGEARPLSFDHKPSHETEARRIIAAGGWVEFNRVNGNLALSRALGDFAFKNCDTKPAEEQIVTAFPDVITDKLTPDHEFIVLACDGIWDVMTNQEVVDFVREKLAEKRDPQSICEELLTRCLAPDCQMGGLGCDNMTVVLVGLLHGQSPDTLFTKCARPAVFTGVNNEDGDQNQIQQDISRVINNFDGEQRVNAANQEEEEDDNEPAPANFQV
B4: FSN-1 (protein, UniProt Q18223 1-332)
chain: MAENDGETIVPDEQCNLTASTPMKSSGLEQVESPKERKTSMVECDDEGNPSSGTPDESPKQLTPHSIPPRRRRSPRRPEVSASRLPLKVLNQIFQYLPLKDLRSAMLTCHSWNNALSMEDSDIWQYLLGKKLPEAAVSDPFLLAELGSAKKKLRAWYFAWNTSDISRNNYIRTNGFTVHRQPVAQSTDGVRGKRGISKGVHAFDITWDGPLGTVAVVGIATKHAALHCVGYVALLGSDDQSWGWNLVDNVLMHNGAQLGVYPKMNNPPKYEVGDKIRLIIDCDTHVAYFERNSEFLGIAFNHIPPLRLYPAVCAVYGNTEVTMVYVGSPQMG

Biological target: GS::RPM-1 (C. elegans) (UniProt Q17551)
Assay: affinity purification with mass spectrometry; GS-tagged bait captured from cryomilled whole-worm lysate (80 mg total protein) on Dynabeads M280 anti-rabbit IgG, 4 h at 4 °C, five washes with lysis buffer (50 mM Tris HCl or HEPES pH 7.5, 150 mM NaCl, 1.5 mM MgCl2, 10% glycerol, 0.1-0.3% NP-40 or 0.1% CHAPS); in-gel trypsin digestion, LC-MS/MS; seven independent experiments

Molecule | binding
SKR-1 (from UniProt G5ECU1 1-176) | binds
B1 | binds
B2 | binds
B3 | binds
B4 | binds

Results are given in words; binding and its absence hold for the method and conditions named. In cells and extracts the contact can be indirect. Here binding means that the protein was enriched with, or labelled near, the bait; the list need not be complete.
